Drawing on PubChem BioAssay AID1347423 (Functional Genomics Laboratory (NCATS/FGL), 2020), this text covers z-score for 105 sequences.

The campaign covered roughly 52,000 sequences. About 210 (0.4%) were called active.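 Rule for the calls: active = gene whose silencing raises cell survival under the drug, median off-target-corrected z-score across its silencing RNAs 2 or more; inactive = the rest.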 The list shows a part of the results.

The nature of this test: Resistance to Poly (ADP-Ribose) Polymerase inhibitor: Gene Identification via Genome-wide siRNA Screen. The following applies: mouse BRCA2 R2336H ES cells, olaparib, CellTiter-Glo viability; stronger effect = higher value. In outline: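 Genome-wide siRNA screen (3 siRNAs/gene, 20 nM) in mouse ES cells carrying hypomorphic BRCA2 R2336H; olaparib 500 nM added 48 h post-transfection, CellTiter-Glo viability 72 h later. Normalized to plate-median negative control; MAD z-scores, gene median, seed-adjusted.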
A general note: Cellular ATP, detected with luciferase, serves as a proxy for viable cell number.
CGAGAGUGAUGCGCAUUUCTT against Sf3b5: the z-score is inactive: -3.21.
On to GGAAGAAAAUCUGAAGCUATT against Scoc, for which the z-score was inactive: 0.325.
Next, “GUACUUCUGGGAAGAAGAGTT against D130074J02Rik”: inactive: -0.455.
On to GGACAUCCUUCACCUCACATT against Ptges, for which the z-score was inactive: -0.117.
Consider “CCAUCCCAUAUGUUCCGGUTT against 2610009E16Rik”, for which the z-score was inactive: -2.18.
Regarding CCAUUCUCUACAUUCACUCTT against Olfr944, the z-score was inactive: -0.787.
In the case of GCUGGAUACUAAUUGCUUATT against Parva, the z-score is inactive: 1.79.
As for GGUGCACAUUCAGAACGAUTT against Hars2, the z-score is inactive: -1.71.
Regarding GCUUUUCAGAGCGAUCUCATT against Vps52, the z-score is inactive: 0.499.
Next, CGCCAUAGUUGGUUUUGUUTT against Scamp4: inactive: -0.959; GGGUUACGUACAACACAUUTT against Mtf1: inactive: -0.818; GCCCUUAACAAGAAUGAGUTT against Six6: inactive: 0.339.
Take CCAAAGUCAUCGAUGCAAATT against Cst6: the z-score is inactive: 0.967.
For GGUCUAUGGUAGUGGAAUATT against Magea7, the z-score is inactive: -1.58.
In the case of GGAGAACAAGAUCUUACAGTT against Nurit, the z-score is inactive: -0.741.
The figure for GCAUUUUGAAUCACUUGAATT against Brca2 is inactive: 1.76; for GGGAAAAGAAAAGAGGACATT against Serf1 it is inactive: -0.561; for GCUCAACCCUCAUUGCUUCTT against Zc3hdc8 it is inactive: -1.92.
Take GCUUGGUCAUUUUAAUAGGTT against AW125441: the z-score was inactive: -0.1.
Take “GCUGGGUGUAAUGUUUCCUTT against E130107N23Rik”: the z-score is inactive: -0.896.
As for CCUGUAAUGAGUAUGACAUTT against Commd10, the z-score was inactive: -0.271.
Consider “ACUGUUGCAGCCUCUCUCATT against 1700029I15Rik”, for which the z-score is inactive: 1.31.
Next, CCGUACAAGAAAAAGUCGUTT against Srrm1: inactive: 0.248; GGAGCAGCUAGACUUCUUUTT against Abhd8: inactive: 0.203.
In the case of GCAAAACACACUGAUGGUGTT against Stx16, the z-score is inactive: -0.292.
GGAAAGAUCUACGAGAUCUTT against Unc5a: the z-score is inactive: 1.36.
Consider CGCAUCAUAAUGAUUGUGATT against Matn2, for which the z-score is inactive: 1.04.
Next, GUCAGAGAAGCAUCCAGGATT against MGC65558: inactive: -2.41.
GCGAAAACUUGGGAUAUUUTT against Mtmr1: the z-score is inactive: -1.25.
Next, “GCAAUGGUUGAGUUUGAGUTT against 2810036L13Rik”: inactive: 0.372; “GGUACUUACAAUUUCAUCATT against 1500019C06Rik”: inactive: 2.11; GGAAAAAAUGGAACCAUUGTT against Rpa3: inactive: -2.35.
GGUUCCAUAGCAGACAAAATT against Mrpl24: the z-score was inactive: -1.99.
In the case of GCUUUACCUGCAUAUUCCATT against Nradd, the z-score was inactive: -1.4.
Consider GCUGCAGGAUAUCGCAAAGTT against Olfr1454, for which the z-score was inactive: 1.2.
Next, GGCUGUGAAAGCAUAUGUGTT against Foxp2: inactive: -0.296.
For “GGUCCAAGCCUUUUCUAGATT against 0610031J06Rik”, the z-score was inactive: 1.72.
Next, GGUGGAACCCAAUGACACCTT against Lass5: inactive: 0.287; UAUUUCUCCCUUGCUGGUATT against MGC118210: inactive: 4.46.
The figure for “GCCUUGACCUCAUACCUUGTT against 2410030K01Rik” is inactive: -0.299.
For the sequence GUUUGAUGAUCACUGGGUCTT against Aqp2, the z-score is inactive: 0.748.
The figure for GGUCUUCUAUCUGAAAAUGTT against Ywhaq is inactive: 0.689.
GGCAUGUGCAUUUGCUACGTT against Lama1: the z-score was inactive: 1.33.
As for GGCAUACCAAAAUCCAUUUTT against Egr1, the z-score is inactive: -0.237.
For the sequence CGAAACACACUGGUAAGUGTT against Col2a1, the z-score was inactive: -0.86.
The figure for GGUUGAGAAGAAGAAGAAATT against Rpl6 is inactive: -3.49.
Next, GGUACAACAAAAAUGUGACTT against V1rg2: inactive: -0.476.
For the sequence GCUAACAGUUCAUAGAAAATT against Nxn, the z-score is inactive: 0.814.
Next, GGAGCUCAACGCAUUUUUCTT against Neurod2: inactive: 0.726; CGAGUGCUUCUCUUGACAUTT against Mrpl22: inactive: -0.887; GCACAGAGUCUAGUGUUUATT against Ube2j2: inactive: 0.778.
Next, GCAAUAAUGGCAAUUACGGTT against Slc35f4: inactive: -0.432; GGUGAACUGGAGUCAUUUATT against Cebpz: inactive: -0.773; GGCUGAAAAUGCAUGUAUGTT against Ptger1: inactive: 1.38.
With GCCCUGGAGUUUAUGAGGUTT against BC052055, the z-score is inactive: 0.923.
Take CCUGGUACAUCUCUGUUACTT against Olfr449: the z-score was inactive: 0.28.
Next, GGUUUCAUCCUGGUGUAUATT against Rap2c: inactive: 0.475.
The figure for CCAAGUCCAUUUCAUACUCTT against Ormdl3 is inactive: 0.467; for GGAUAUAUUGAAAUGCCCATT against Zfp161 it is inactive: -0.0742; for CCUUCUAGUUUGCCUCUGGTT against Olfr877 it is inactive: -1.68.
The figure for GCCAGUAGUAGUAGAAUAATT against LOC225594 is inactive: -2.3; for GGGAAAGCACUCCAACACATT against BC037594 it is inactive: 1.25.
Take GGUUUUGUUGCAUGGUAAGTT against Ubb: the z-score is inactive: -1.61.
The figure for CCGACUCCUACAGAUUAUUTT against Amac is inactive: -1.11; for AAAUCCUGUUAGGGAGUGUTT against Olfr57 it is inactive: 0.672.
Next, GGCUAGCUUAUCAAGCAACTT against AW319487: inactive: 0.38.
The figure for GGCAUUUCUCGACCUAUGGTT against Hoxc6 is inactive: 0.898; for GAGCUGUGAAUGCCUGUGGTT against Lyzs it is inactive: -1.72.
As for “GCAUAUUGAGGAAUUCCUATT against 4831416G18Rik”, the z-score was inactive: 1.09.
The figure for GGCUUCAAGACUUGUGUGATT against Rdh1 is inactive: 0.00528; for GUCCUUCUUCUUUGGGUUGTT against Olfr1356 it is inactive: -1.2; for GCUGAUGUGAAUGGCUCACTT against Gmeb2 it is inactive: -1.14.
The figure for “GGAAGGAGAAUAUUUGACATT against D430044G18Rik” is inactive: 1.57; for GCUCAUCAUGUGAAACUUUTT against Sara2 it is inactive: -0.0401.
Regarding “GCAGGCUCGCUGUAACUACTT against 9430098E02Rik”, the z-score was inactive: -0.468.
The figure for GGAAAAGGUGGCCUACACATT against BC049711 is inactive: -0.593.
On to GGAAGACCAAUAGUACUGCTT against Il1rn, for which the z-score is inactive: -0.596.
As for GGCUUUGAGAGUGGUGUAUTT against Sgsh, the z-score is inactive: -1.1.
As to CCUGUAUACGCAGAACACUTT against Gpc1, the z-score was inactive: 0.198.
Next, GCGAACAUGUGUUUUACGUTT against Hist1h4h: inactive: -0.155; GGGUUUGUUAAGUCCUGUGTT against Mlze: inactive: -2.93.
Next, GCCACAAGUUAAUGCUCUUTT against Rfx5: inactive: 0.144; “GCCGAUUCUUCAAUGUGCGTT against 2610028I09Rik”: inactive: -0.0822; “GCUAAUACACCUUAUGAGATT against 2700084L22Rik”: inactive: 1.2.
For GCCUUGAAUACCACAUUUCTT against Arl10a, the z-score is inactive: -2.1.
Next, “GGAAGAAAUAUACAAAGACTT against 5730511K23Rik”: inactive: 0.33; GCAAUGUGUCAGGCACACATT against Pax2: inactive: 1; GGCAGAAGAAGAAGUUAUATT against Gja10: inactive: -0.341.
Next, GGACCACAGCUGGAUAUAUTT against Sik2: inactive: -0.369.
The figure for GGGUCUGCAUAGGUUGUUATT against Epm2a is inactive: 0.192; for GGAAAUGCGUCAAAAGACUTT against H2afz it is inactive: 0.234; for CGGCUAGAUGAUCCUACCUTT against Tsga13 it is inactive: -2.22.
Turning to GGUGCAUAAACGAUGUGGATT against Bat9, the z-score is inactive: 0.642.
Next, “GCCGAACGUGUUUAAACUCTT against D430018P08”: inactive: -0.751; GCCGUCUUAACACCUAUGGTT against Olfr690: inactive: -3.04.
The figure for CCGUCUAUACCUUAAUUGATT against Il28ra is inactive: 0.871.
Consider GGGCCUUAGGCUAUUCCUATT against Otub2, for which the z-score was inactive: -0.679.
“GGCACUAAGGAAGAAAAAATT against 4933433C09Rik”: the z-score is inactive: -1.23.
With GCUCAUCUUAGACGAGGCCTT against BC027373, the z-score was inactive: 0.227.
Regarding CUCUAAGAAACAUGGUGGCTT against Sod1, the z-score is inactive: 0.0934.
The figure for “GGAAAUACAGCUCUUGCUCTT against 5730405I09Rik” is inactive: -0.823; for GGAGAAGCAGGCCUUACAGTT against Tna it is inactive: -0.787.
Next, “CCCGGACAUCAUAAUCAGUTT against 6330579B17Rik”: inactive: -0.929.
With GCAAUGCUCUAAUCCACUCTT against Nxf, the z-score was inactive: -0.131.
For the sequence “GCAGCUAAACACCGAUAUGTT against 1700027M21Rik”, the z-score is inactive: 1.27.
